# Results reported in PubChem BioAssay AID445 (National Center for Advancing Translational Sciences (NCATS), 2006).
# The list shows a part of the results. These are further read-outs of the screen, such as a control signal, another cell line or another target. No call is given for them. Most of these compounds were active or inconclusive in the main read-out, so they are no random draw. Words in brackets tell the shape of the fitted curve; partial curves, single points and poor fits give uncertain potencies.
# Assay: IkB Signaling
# Settings: ABC-DLBCL IkBa-CBG/CBR dual luciferase ratio (green luciferase fused to IkBa over red control in OCI-Ly3 lymphoma cells), 4 h
# Outline: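 Curves were fitted separately to fusion (green), unfused (red) and ratio luminescence, then classed by r2, magnitude and activity. Cells: OCI-Ly3, 4 h compound plus doxycycline at 37C; 10 uM MG-132 defined full response.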
# [1] = measured here: control luc red channel unless noted
# [2] = measured here: IkB-luc green channel
# [3] = measured here: control luc red channel
structure (smiles),measurement,setting,value
CCS(=O)(=O)c1ncc(Cl)c(C(=O)N2CCN(c3cccc(Cl)c3)CC2)n1,AC50,[1],"2 µM [falling, full curve]"
CC(=O)OC(C(=O)NCc1ccco1)c1cccnc1 (centres undefined),AC50,[2],"31.6 µM [rising, partial curve]"
same,AC50,[3],"31.6 µM [falling, single point]"
Cc1ccc(CNS(=O)(=O)c2cc(C(=O)Nc3cccc(C(F)(F)F)c3)ccc2F)cc1,AC50,[1],"31.6 µM [falling, partial curve]"
Cc1cccc(N2CCN(C3(c4ccccc4)C(=O)c4ccccc4C3=O)CC2)c1C,AC50,[1],"3.98 µM [falling, partial curve]"
Cc1ccc(S(=O)(=O)N2CCOCC2)cc1C(=O)Nc1ccccc1C(=O)O,AC50,[1],"3.98 µM [falling, full curve]"
O=S(=O)(Nc1ccc2nc(-c3cccc(Cl)c3)oc2c1)c1ccccc1,AC50,[1],"25.1 µM [falling, partial curve]"
Cc1ccc2onc(CC(=O)N(C)c3ccccc3)c2c1,AC50,[1],"6.31 µM [falling, partial curve]"
COc1ccc(CCNC(=O)c2c(C)nn(-c3ccc(F)cc3)c2-n2cccc2)cc1OC,AC50,[1],"3.98 µM [falling, full curve, poor fit]"
O=C(O)CCC(=O)Nc1ccc(Br)cn1,AC50,[1],"39.8 µM [falling, single point]"
COc1ccc(C)cc1NC(=O)c1cnc2scc(C)n2c1=O,AC50,[2],"3.98 µM [rising, partial curve]"
same,AC50,[3],"3.16 µM [rising, partial curve]"
CCc1ccc(NC(=O)Cn2c(=O)oc3cc(S(=O)(=O)N4CCCCCC4)ccc32)cc1,AC50,[1],"3.16 µM [falling, full curve]"
CC(C)Sc1ncc(Cl)c(C(=O)Nc2nnc(C(C)C)s2)n1,AC50,[1],"39.8 µM [falling, single point]"
COc1ccc(N2CSC3=C(C#N)C(c4cc(OC)ccc4OC)CC(=O)N3C2)c(OC)c1 (centres undefined),AC50,[1],"3.16 µM [rising, full curve, poor fit] [measured here: IkB-luc green channel]"
CCOC(=O)c1c(C)oc2c1c1c(c3ccccc32)OCN(Cc2cccnc2)C1,AC50,[1],"25.1 µM [falling, single point]"
CN(C(=O)C(=O)Nc1ccc2nc3n(c(=O)c2c1)CCCCC3)c1cccc(C(F)(F)F)c1,AC50,[1],"12.6 µM [falling, partial curve]"
O=C1NC(c2ccccn2)Nc2sc3c(c21)CCC3 (centres undefined),AC50,[1],"31.6 µM [rising, single point] [measured here: IkB-luc green channel]"
CCc1ccc(CNC(=O)c2cc(-c3ccc(Br)s3)nc3ccccc23)cc1,AC50,[1],"12.6 µM [falling, partial curve]"
O=C(Nc1ccccc1)c1cccc(S(=O)(=O)Nc2cccc(F)c2)c1,AC50,[1],"0.00631 µM [falling, full curve]"
COc1ccc(OC)c(-c2cc(C(=O)NC(C)c3ccccc3)no2)c1 (centres undefined),AC50,[1],"0.316 µM [rising, full curve]"
COc1cccc(-c2ccc3c(N)c(C(=O)NCc4ccc(Cl)cc4)sc3n2)c1,AC50,[1],"12.6 µM [falling, partial curve]"
CCOC(=O)N1CCc2c(sc(NCc3ccc(OC)c(OC)c3OC)c2C(=O)Nc2ccc(OC)cc2OC)C1,AC50,[1],"15.8 µM [falling, partial curve]"
CCCCCOc1ccc(/C=C/C(=O)Nc2sc(C(C)=O)c(C)c2C(=O)OCC)cc1OC,AC50,[1],"25.1 µM [rising, partial curve, poor fit]"
CCc1ccc(-n2c(=O)c3sc4ccccc4c3n(Cc3cccc(F)c3)c2=O)cc1,AC50,[1],"3.16 µM [rising, partial curve]"
CCN1C(=O)/C(=C2/Sc3ccc(OC)cc3N2C)SC1=Nc1cccc(O)c1,AC50,[2],"12.6 µM [rising, partial curve]"
same,AC50,[3],"7.94 µM [rising, partial curve]"
COc1ccccc1CNC(=O)c1ccc2nc(-c3ccccc3)c(-c3ccccc3)nc2c1,AC50,[1],"10 µM [falling, partial curve]"
CCn1cc(C(=O)NCc2ccc(C)cc2)c(=O)c2cc(S(=O)(=O)N3CCCCCC3)ccc21,AC50,[1],"39.8 µM [falling, single point]"
COc1ccc(NC(=O)C2CCN(c3nc(C)nc4c3CCC4)CC2)cc1,AC50,[1],"12.6 µM [falling, partial curve]"
O=C(CCc1nc2cccnc2n1Cc1cccs1)Nc1cccc(Cl)c1,AC50,[1],"39.8 µM [falling, single point]"
CCCCN(C)CCCNC(=O)CC1Oc2ccccc2NC1=O (centres undefined),AC50,[1],"10 µM [falling, partial curve]"
COc1ccc(CNC(=O)c2ccc3c(c2)N(Cc2cccc(Cl)c2)C(=O)c2ccccc2S3)c(OC)c1,AC50,[1],"3.16 µM [falling, partial curve]"
COc1cc(OC)cc(C(=O)NCc2n[nH]c(=S)n2-c2ccccc2OC)c1,AC50,[1],"0.316 µM [falling, full curve]"
Cc1cccn2c(Nc3ccccc3)c(-c3ccc(N4CCOCC4)cc3)nc12,AC50,[1],"20 µM [falling, partial curve]"
CCOC(=O)N1CCN(C(=O)c2ccc3c(=O)n(Cc4ccccc4)c(=S)[nH]c3c2)CC1,AC50,[1],"31.6 µM [falling, partial curve]"
CCOc1ccc(NC(=O)CSc2nccn2-c2cccc(C)c2C)cc1,AC50,[1],"0.251 µM [falling, full curve, poor fit]"
O=S(=O)(NCC(c1ccco1)S(=O)(=O)c1cccs1)c1ccc(F)c(C(F)(F)F)c1 (centres undefined),AC50,[1],"3.16 µM [falling, single point]"
Cc1cc(C(=O)CSc2nc3ccc(Cl)cc3[nH]2)c(C)n1C,AC50,[1],"31.6 µM [falling, single point]"
Cc1cc(NC(=O)c2ccc3c(c2)N(Cc2cccc(Cl)c2)C(=O)c2ccccc2S3=O)ccc1Br (centres undefined),AC50,[1],"15.8 µM [falling, partial curve]"
CC(=O)c1c(C)n(CC(=O)NCc2ccc3c(c2)OCO3)c2ccccc12,AC50,[1],"12.6 µM [falling, partial curve]"
COc1cc(/C=C\C(=O)N2CCC=CC2=O)cc(OC)c1OC,AC50,[1],"10 µM [falling, partial curve]"
Cc1nn(-c2ccccc2)c(OC(=O)c2ccccc2F)c1S(=O)(=O)c1ccccc1,AC50,[1],"1.58 µM [falling, full curve, poor fit]"
CCn1c(=O)c2cc(C(=O)N3CCN(c4cccc(Cl)c4)CC3)sc2c2ccccc21,AC50,[1],"5.01 µM [falling, partial curve]"
N#Cc1ccccc1NC(=O)c1cc2c(=O)n3ccccc3nc2s1,AC50,[1],"0.00631 µM [rising, full curve, poor fit]"
COc1ccc(C(=O)Nc2ccc(Cl)cc2C(=O)NCc2ccco2)cc1OC,AC50,[1],"12.6 µM [falling, partial curve]"
Cc1cc(C)c(C#N)c(SCC(=O)OC2CCCCC2)n1,AC50,[1],"12.6 µM [falling, partial curve]"
CCOc1ccccc1Nc1nc(-c2cccc(Cl)c2)c2c(n1)-c1ccccc1OC2,AC50,[1],"3.16 µM [falling, single point]"
COc1ccc(-c2noc(-c3ccc(NCc4ccco4)c([N+](=O)[O-])c3)n2)cc1,AC50,[1],"6.31 µM [falling, partial curve]"
CCOC(=O)c1cccc(NC(=O)CCc2c(C)nc3cc(-c4ccc(Cl)cc4)nn3c2C)c1,AC50,[1],"0.0316 µM [falling, full curve]"
CCc1nnc(SCC(=O)N(C)c2ccccc2)c2cc3sccc3n12,AC50,[1],"10 µM [falling, partial curve]"
Cn1cnnc1SCC(=O)Nc1cc(C(=O)O)cc(C(=O)O)c1,AC50,[1],"1 µM [rising, single point]"
CCc1ccc(Oc2nc3c(C)cccn3c(=O)c2/C=C(\C#N)c2nc3ccccc3[nH]2)cc1,AC50,[1],"20 µM [falling, partial curve]"
Cc1cc(C)nc(-n2nc(C)cc2Nc2ccccc2)n1,AC50,[1],"15.8 µM [falling, partial curve]"
COc1ccc(NC(=O)c2sc3nc4c(cc3c2N)CN(C(C)C)CC4)c(OC)c1,AC50,[1],"12.6 µM [falling, partial curve]"
Cc1cccc(C(=O)NCC(c2ccc3c(c2)OCO3)N2CCN(c3ccccc3F)CC2)c1 (centres undefined),AC50,[1],"25.1 µM [falling, partial curve]"
COc1cc(-c2noc(CSc3nc(-c4ccccc4)cc(=O)[nH]3)n2)cc(OC)c1OC,AC50,[1],"12.6 µM [falling, partial curve, poor fit]"
CCOc1ccc2nc(-c3ccccc3)[nH]c2c1,AC50,[1],"25.1 µM [falling, partial curve]"
COc1ccc(OC)c(NC(=O)Cn2cnc3sc(C)c(S(=O)(=O)N4CCN(c5ccccc5OC)CC4)c3c2=O)c1,AC50,[1],"12.6 µM [falling, partial curve]"
COc1ccc(NC(=O)c2ccc3c(=O)n4nc(Nc5cc(C)ccc5C)sc4nc3c2)cc1,AC50,[1],"3.16 µM [falling, single point]"
O=C1CN(C(=O)c2ccc(Br)o2)C(c2ccc(F)cc2)c2cc(F)ccc2N1 (centres undefined),AC50,[1],"25.1 µM [falling, partial curve]"
Cc1cc(C)cc(OCc2nnc(SCC(=O)c3ccccc3)o2)c1,AC50,[1],"15.8 µM [falling, partial curve]"
CCOC(=O)c1sc2ncn(C(CC)C(=O)OCC)c(=O)c2c1C (centres undefined),AC50,[1],"31.6 µM [falling, single point]"
c1ccc(Cc2nnc(SCc3nc(-c4cccs4)no3)n2-c2ccccc2)cc1,AC50,[1],"25.1 µM [falling, single point]"

# A second format for some results above:
structure (smiles)	measurement	setting	value
CC(=O)OC(C(=O)NCc1ccco1)c1cccnc1 (centres undefined)	AC50	[2]	31.6 µM [rising, partial curve]
Cc1ccc2onc(CC(=O)N(C)c3ccccc3)c2c1	AC50	[1]	6.31 µM [falling, partial curve]
CCc1ccc(NC(=O)Cn2c(=O)oc3cc(S(=O)(=O)N4CCCCCC4)ccc32)cc1	AC50	[1]	3.16 µM [falling, full curve]
O=C1NC(c2ccccn2)Nc2sc3c(c21)CCC3 (centres undefined)	AC50	[1]	31.6 µM [rising, single point] [measured here: IkB-luc green channel]
COc1ccc(OC)c(-c2cc(C(=O)NC(C)c3ccccc3)no2)c1 (centres undefined)	AC50	[1]	0.316 µM [rising, full curve]
CCCCCOc1ccc(/C=C/C(=O)Nc2sc(C(C)=O)c(C)c2C(=O)OCC)cc1OC	AC50	[1]	25.1 µM [rising, partial curve, poor fit]
CCn1cc(C(=O)NCc2ccc(C)cc2)c(=O)c2cc(S(=O)(=O)N3CCCCCC3)ccc21	AC50	[1]	39.8 µM [falling, single point]
COc1ccc(CNC(=O)c2ccc3c(c2)N(Cc2cccc(Cl)c2)C(=O)c2ccccc2S3)c(OC)c1	AC50	[1]	3.16 µM [falling, partial curve]
COc1cc(OC)cc(C(=O)NCc2n[nH]c(=S)n2-c2ccccc2OC)c1	AC50	[1]	0.316 µM [falling, full curve]
CCOc1ccc(NC(=O)CSc2nccn2-c2cccc(C)c2C)cc1	AC50	[1]	0.251 µM [falling, full curve, poor fit]
Cc1cc(NC(=O)c2ccc3c(c2)N(Cc2cccc(Cl)c2)C(=O)c2ccccc2S3=O)ccc1Br (centres undefined)	AC50	[1]	15.8 µM [falling, partial curve]
CCn1c(=O)c2cc(C(=O)N3CCN(c4cccc(Cl)c4)CC3)sc2c2ccccc21	AC50	[1]	5.01 µM [falling, partial curve]
COc1ccc(C(=O)Nc2ccc(Cl)cc2C(=O)NCc2ccco2)cc1OC	AC50	[1]	12.6 µM [falling, partial curve]
Cc1cc(C)c(C#N)c(SCC(=O)OC2CCCCC2)n1	AC50	[1]	12.6 µM [falling, partial curve]
CCOC(=O)c1cccc(NC(=O)CCc2c(C)nc3cc(-c4ccc(Cl)cc4)nn3c2C)c1	AC50	[1]	0.0316 µM [falling, full curve]
Cc1cc(C)nc(-n2nc(C)cc2Nc2ccccc2)n1	AC50	[1]	15.8 µM [falling, partial curve]
COc1ccc(NC(=O)c2sc3nc4c(cc3c2N)CN(C(C)C)CC4)c(OC)c1	AC50	[1]	12.6 µM [falling, partial curve]
O=C1CN(C(=O)c2ccc(Br)o2)C(c2ccc(F)cc2)c2cc(F)ccc2N1 (centres undefined)	AC50	[1]	25.1 µM [falling, partial curve]
c1ccc(Cc2nnc(SCc3nc(-c4cccs4)no3)n2-c2ccccc2)cc1	AC50	[1]	25.1 µM [falling, single point]
